Assay results: patent publication US11096881B2 (priority 2016, dated 2021)

Test system: skin of six human volunteers with phototypes III
Conditions: in vivo

SMILES: NCCS [Cysteamine]
- Melanin values (change after treatment): significantly reduced
